{"sequences": {"note": "By UniProt entry, the sequences of proteins in these tests, tags left out.", "UniProt O75376": "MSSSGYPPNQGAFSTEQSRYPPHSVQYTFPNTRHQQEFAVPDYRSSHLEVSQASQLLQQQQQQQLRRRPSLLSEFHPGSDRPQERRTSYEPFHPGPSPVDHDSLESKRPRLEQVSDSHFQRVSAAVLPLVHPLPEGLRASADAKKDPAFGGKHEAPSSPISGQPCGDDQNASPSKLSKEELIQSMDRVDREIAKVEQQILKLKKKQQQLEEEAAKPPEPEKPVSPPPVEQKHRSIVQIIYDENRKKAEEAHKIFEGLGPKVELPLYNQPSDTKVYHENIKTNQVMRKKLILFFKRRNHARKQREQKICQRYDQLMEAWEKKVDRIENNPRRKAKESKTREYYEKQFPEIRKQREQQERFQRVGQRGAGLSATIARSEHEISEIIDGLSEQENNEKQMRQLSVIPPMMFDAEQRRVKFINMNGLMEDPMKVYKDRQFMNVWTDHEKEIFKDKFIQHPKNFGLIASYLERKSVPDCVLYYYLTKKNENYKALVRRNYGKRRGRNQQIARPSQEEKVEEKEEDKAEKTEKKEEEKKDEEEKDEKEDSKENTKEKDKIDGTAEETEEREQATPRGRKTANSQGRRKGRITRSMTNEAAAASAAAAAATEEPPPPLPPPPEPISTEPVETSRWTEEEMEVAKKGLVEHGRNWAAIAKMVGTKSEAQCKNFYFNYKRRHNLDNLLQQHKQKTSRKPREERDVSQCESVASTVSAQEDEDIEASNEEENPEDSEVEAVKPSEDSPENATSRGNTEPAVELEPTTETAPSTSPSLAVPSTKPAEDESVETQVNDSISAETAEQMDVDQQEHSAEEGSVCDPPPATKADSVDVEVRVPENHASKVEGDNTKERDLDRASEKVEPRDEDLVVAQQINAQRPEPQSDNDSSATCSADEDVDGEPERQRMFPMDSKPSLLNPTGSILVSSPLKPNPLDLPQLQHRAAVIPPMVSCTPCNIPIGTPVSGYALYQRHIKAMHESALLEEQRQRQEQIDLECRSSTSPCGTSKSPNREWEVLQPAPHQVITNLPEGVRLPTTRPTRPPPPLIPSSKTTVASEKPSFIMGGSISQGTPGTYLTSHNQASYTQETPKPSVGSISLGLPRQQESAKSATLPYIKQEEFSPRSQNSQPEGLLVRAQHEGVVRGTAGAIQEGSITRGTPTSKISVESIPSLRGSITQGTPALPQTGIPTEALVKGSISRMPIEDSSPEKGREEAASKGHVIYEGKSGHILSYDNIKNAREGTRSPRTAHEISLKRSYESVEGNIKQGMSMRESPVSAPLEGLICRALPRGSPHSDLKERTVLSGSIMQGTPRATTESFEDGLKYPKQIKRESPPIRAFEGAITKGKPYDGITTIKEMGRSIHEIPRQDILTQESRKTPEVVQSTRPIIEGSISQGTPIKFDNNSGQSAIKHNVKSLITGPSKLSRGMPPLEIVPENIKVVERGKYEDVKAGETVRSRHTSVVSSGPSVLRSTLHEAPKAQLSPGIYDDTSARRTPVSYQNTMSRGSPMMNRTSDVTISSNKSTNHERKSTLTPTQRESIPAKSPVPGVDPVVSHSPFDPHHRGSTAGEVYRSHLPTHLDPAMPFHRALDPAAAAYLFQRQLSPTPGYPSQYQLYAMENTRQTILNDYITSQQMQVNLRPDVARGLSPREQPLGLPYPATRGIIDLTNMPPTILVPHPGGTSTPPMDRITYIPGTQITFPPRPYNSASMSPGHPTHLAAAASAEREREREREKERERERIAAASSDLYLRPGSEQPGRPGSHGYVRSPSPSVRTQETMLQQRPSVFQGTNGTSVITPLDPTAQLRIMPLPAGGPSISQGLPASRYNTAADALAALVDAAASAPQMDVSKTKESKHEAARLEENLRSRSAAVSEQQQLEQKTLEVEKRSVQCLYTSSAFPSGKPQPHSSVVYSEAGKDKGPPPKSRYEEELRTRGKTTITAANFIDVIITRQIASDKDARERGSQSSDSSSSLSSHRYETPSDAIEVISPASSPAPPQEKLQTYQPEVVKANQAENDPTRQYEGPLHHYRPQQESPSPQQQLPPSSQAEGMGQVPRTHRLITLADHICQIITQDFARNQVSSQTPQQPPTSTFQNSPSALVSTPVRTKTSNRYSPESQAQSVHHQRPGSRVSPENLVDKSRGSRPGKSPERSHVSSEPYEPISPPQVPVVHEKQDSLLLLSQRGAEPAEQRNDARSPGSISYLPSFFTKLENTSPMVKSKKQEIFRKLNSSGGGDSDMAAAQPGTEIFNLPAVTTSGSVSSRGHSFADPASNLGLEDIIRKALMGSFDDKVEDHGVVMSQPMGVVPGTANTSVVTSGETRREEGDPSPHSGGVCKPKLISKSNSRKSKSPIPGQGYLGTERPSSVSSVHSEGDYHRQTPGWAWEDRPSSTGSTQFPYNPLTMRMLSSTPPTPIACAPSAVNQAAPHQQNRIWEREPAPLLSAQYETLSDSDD", "UniProt O15379": "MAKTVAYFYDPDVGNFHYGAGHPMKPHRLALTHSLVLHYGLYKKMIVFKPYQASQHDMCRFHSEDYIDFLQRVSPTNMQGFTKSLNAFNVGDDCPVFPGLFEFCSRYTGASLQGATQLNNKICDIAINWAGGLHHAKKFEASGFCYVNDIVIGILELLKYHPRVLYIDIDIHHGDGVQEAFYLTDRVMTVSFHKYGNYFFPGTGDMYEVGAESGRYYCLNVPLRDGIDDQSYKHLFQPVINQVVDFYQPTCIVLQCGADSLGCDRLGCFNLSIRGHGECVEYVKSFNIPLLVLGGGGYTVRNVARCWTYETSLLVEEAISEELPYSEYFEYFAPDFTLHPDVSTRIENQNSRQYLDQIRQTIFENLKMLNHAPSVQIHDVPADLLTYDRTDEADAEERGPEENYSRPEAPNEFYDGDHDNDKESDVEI"}, "source": "paper PMC4827801", "target": "HPV16 E8^E2C-HA (Human papillomavirus 16) (UniProt P0DKA0)", "experiment": "co-IP; lysates of stable 293T cell lines (1.5 x 10^7 cells) precipitated with magnetic anti-HA beads, immunoblot for endogenous proteins; IP-buffer 50mM HEPES pH7.5, 150mM NaCl, 10% glycerol, 5mM EDTA, 1mM DTT or 50mM HEPES pH7.9, 150mM NaCl, 0.3% Igepal 630, 1mM DTT", "note": "No constants are given. Whether binding was seen depends on the method and setting. In cells and extracts the contact can be indirect. Some binding calls cover weakened binding; strength is not graded here."}
{"molecule": "NCoR (from UniProt O75376 1-2440)", "values": [{"measurement": "binding", "result": "binds"}]}
{"molecule": "HDAC3 (histone deacetylase 3) (from UniProt O15379 1-428) (enzyme)", "values": [{"measurement": "binding", "result": "binds"}]}
{"molecule": "TBL1 (transducin-beta like 1) (protein, UniProt O60907 1-577) MTELAGASSSCCHRPAGRGAMQSVLHHFQRLRGREGGSHFINTSSPRGEAKMSITSDEVNFLVYRYLQESGFSHSAFTFGIESHISQSNINGTLVPPAALISILQKGLQYVEAEISINEDGTVFDGRPIESLSLIDAVMPDVVQTRQQAFREKLAQQQASAAAAAAAATAAATAATTTSAGVSHQNPSKNREATVNGEENRAHSVNNHAKPMEIDGEVEIPSSKATVLRGHESEVFICAWNPVSDLLASGSGDSTARIWNLNENSNGGSTQLVLRHCIREGGHDVPSNKDVTSLDWNTNGTLLATGSYDGFARIWTEDGNLASTLGQHKGPIFALKWNRKGNYILSAGVDKTTIIWDAHTGEAKQQFPFHSAPALDVDWQNNTTFASCSTDMCIHVCRLGCDRPVKTFQGHTNEVNAIKWDPSGMLLASCSDDMTLKIWSMKQEVCIHDLQAHNKEIYTIKWSPTGPATSNPNSNIMLASASFDSTVRLWDIERGVCTHTLTKHQEPVYSVAFSPDGKYLASGSFDKCVHIWNTQSGNLVHSYRGTGGIFEVCWNARGDKVGASASDGSVCVLDLRK", "values": [{"measurement": "binding", "result": "binds"}]}
